Experimental data reported in PubChem BioAssay AID1487 (National Center for Advancing Translational Sciences (NCATS), 2009).
Several values for one entry are separate records, joined by “and”; a condition that tells them apart may be missing. Equal entries are not always repeated. Some of the results follow. These are further read-outs of the screen, such as a control signal, another cell line or another target. No call is given for them. The list favours compounds with an active or inconclusive main result. Potencies come from curve fits of mixed quality, noted in brackets.

Assay: qHTS Assay for Modulators of Lamin A Splicing
Details: HeLa LMNA splicing GFP/RFP minigene ratio, 48 h
Summary of the method: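 S3 HeLa stable clones carrying a lamin A-EGFP splicing minigene plus DsRed2 were seeded at 600 cells/well in Opti-MEM with 2% FBS, pin-dosed and incubated 48 h at 37°C. Acumen cytometry (488 nm) gave the GFP/RFP total-intensity ratio.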

[1] = measured here: GFP splicing reporter channel
[2] = measured here: RFP viability control channel

Compound	AC50 [1]	AC50 [2]
Clc1cc(I)cc(Cl)c1NC1=NCCN1	5.62 µM [falling, partial curve, poor fit]	6.31 µM [falling, single point]
Cc1ccc(-c2nc3ccc(Cl)cc3n2OC(=O)N(C)C)cc1		12.6 µM [rising, single point]
CC1CCCN(CC(=O)c2ccc(Cl)c(Cl)c2)C1 (stereo unspecified)		0.0447 µM [rising, full curve, poor fit]
Cc1cc(OCC(=O)NC2CCS(=O)(=O)C2)c2c3c(c(=O)oc2c1)CCC3 (stereo unspecified)	11.2 µM [rising, partial curve]	3.16 µM [rising, full curve]
COC(=O)C(N)CCCN=C(N)N[N+](=O)[O-] (stereo unspecified)		0.000891 µM [falling, full curve, poor fit]
CC(C)C[C@H]1C(=O)N2CCCC2[C@]2(O)O[C@](NC(=O)[C@@H]3C=C4c5cccc6[nH]c(Br)c(c56)C[C@H]4N(C)C3)(C(C)C)C(=O)N12 (stereo partly specified)	17.8 µM [falling, partial curve]	5.01 µM [rising, full curve, poor fit] and 15.8 µM [falling, single point]
CCn1c(O)c(C=Nc2ccc(N3CCOCC3)cc2)c(=O)n(CC)c1=S	35.5 µM [falling, single point]	35.5 µM [falling, single point]
O=C1NC(=O)C(CCc2ccncc2)(CCc2ccncc2)C(=O)N1Cc1ccccc1	0.00282 µM [falling, full curve, poor fit]	
NCCCC[C@H](N[C@@H](CCc1ccccc1)C(=O)O)C(=O)N1CCC[C@H]1C(=O)O	3.55 µM [falling, partial curve, poor fit]	0.001 µM [falling, full curve, poor fit]
N#CCCn1cc(C(=O)Nc2ccc([N+](=O)[O-])cc2)c(-c2ccc3c(c2)OCCO3)n1		2.24 µM [falling, partial curve, poor fit]
C=CCN(CC=C)Cc1c[nH]c2ccccc12	25.1 µM [rising, single point]	22.4 µM [rising, single point]
Cc1cc(N2CCCC2)ccc1C=C(C#N)C#N		35.5 µM [falling, single point]
O=c1[nH]c(=O)n(CCC2=CCCCC2)c(O)c1C=NC1CCN(Cc2ccccc2)CC1		15.8 µM [rising, partial curve, poor fit]
Oc1ccccc1O	11.2 µM [falling, partial curve]	11.2 µM [falling, partial curve]

Three compounds out of the list, arranged by count of non-hydrogen atoms, rising.
Compound	AC50 [1]	AC50 [2]
Oc1ccccc1O	11.2 µM [falling, partial curve]	11.2 µM [falling, partial curve]
C=CCN(CC=C)Cc1c[nH]c2ccccc12	25.1 µM [rising, single point]	22.4 µM [rising, single point]
Cc1cc(OCC(=O)NC2CCS(=O)(=O)C2)c2c3c(c(=O)oc2c1)CCC3 (stereo unspecified)	11.2 µM [rising, partial curve]	3.16 µM [rising, full curve]
